For 2 molecules, binding results are on record in PMC3206951.

For this assay, the target named is T1, RpkA-GFP (Receptor phosphatidylinositol kinase A with GFP fused to the C-terminus) (D. discoideum) (UniProt Q86D86).
T1 sequence: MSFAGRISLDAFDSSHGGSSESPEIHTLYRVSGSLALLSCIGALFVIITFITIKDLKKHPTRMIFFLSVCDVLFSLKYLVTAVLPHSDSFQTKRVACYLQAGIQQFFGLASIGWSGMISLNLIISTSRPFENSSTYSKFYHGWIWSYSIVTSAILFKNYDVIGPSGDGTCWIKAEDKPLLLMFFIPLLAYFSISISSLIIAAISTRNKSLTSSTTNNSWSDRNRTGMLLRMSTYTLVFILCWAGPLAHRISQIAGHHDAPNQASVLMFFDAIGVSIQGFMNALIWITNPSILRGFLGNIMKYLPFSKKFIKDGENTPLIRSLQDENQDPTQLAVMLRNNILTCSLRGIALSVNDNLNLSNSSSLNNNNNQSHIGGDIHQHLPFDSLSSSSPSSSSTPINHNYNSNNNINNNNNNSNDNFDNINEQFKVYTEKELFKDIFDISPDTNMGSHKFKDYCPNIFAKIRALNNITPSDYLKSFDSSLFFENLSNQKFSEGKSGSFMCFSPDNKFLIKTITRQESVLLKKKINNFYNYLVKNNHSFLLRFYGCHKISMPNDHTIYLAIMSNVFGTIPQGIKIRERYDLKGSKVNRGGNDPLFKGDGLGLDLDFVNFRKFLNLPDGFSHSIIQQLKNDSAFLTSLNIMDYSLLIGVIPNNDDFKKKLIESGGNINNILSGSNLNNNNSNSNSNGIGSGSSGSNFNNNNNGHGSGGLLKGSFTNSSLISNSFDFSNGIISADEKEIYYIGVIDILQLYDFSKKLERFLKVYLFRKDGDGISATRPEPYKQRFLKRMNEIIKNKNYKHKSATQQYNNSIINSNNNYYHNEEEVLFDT
Description: affinity purification with mass spectrometry; RpkA-GFP immunoprecipitated from cell lysates with polyclonal GFP antibodies coupled to protein A beads; lysis in 50 mM Tris-HCl pH 7.4, 100 mM NaCl, 0.5% NP40; SDS-PAGE, Coomassie Blue, LC-MS/MS; GFP as a control.

These are yes or no findings as the source states them, for the method shown. Binding seen in cells or lysates may run through a third protein. These calls come from enrichment with a bait or labelling near it, and not all partners need be listed. Where a sequence is shown, tags or fusion partners need not be part of it.

B1: VatC, subunit C of the V-ATPase (protein, UniProt P54648 1-368)
chain: MSETQEFWLISAPNLPGADIFDQVNQKTAKENSLSENKKFNTPALRVGTLNSLITLNDELQKIDTIVESTTKKIARQLVDLVGTKPGKDKSLSINGHTIPQYLQQFAWDDAKYNLKLSLQEIVEKISSAVSKIDDDLKIKSSEYSTLSSSVASEERKASGNLQVRTLNDLITADNIVQTDYFTTAFVVIPKQSEKEFLACYETISDFVLGRSAKRVAQDNDYFLYSVILFKKFYENFKTKIIEKKWVVRDFKLEDNKPTQERSKLTEDKKNCRTSLIRWCRLNFPEAFMAWVHLKVVRVFVESVLRFGIPFNFQAILMKPQKGADKKVRDILFDQFKYLGSAHISGKNETDDSEKFYPYISVSVNWEN
In the case of B1, the binding entry was “binds”.

B2: VatM, subunit M of the V-ATPase (membrane-spanning subunit) (protein, UniProt Q54E04 1-815)
chain: MSFLRPSIWRSSPMQMVQLFVQIEAAHDTVDELGKLGLIQFLDDNEHVNLFQRNFVNEVKRCDDMEKKLKFFEDQVKKEPKLQKLLPDNMLSVVDDDSQMDELEGRFDELESELKQVNANQETLQRNYNELIQLRHVLTKDSVFFQENPNLIEGEGHEHSARSPLLAEDQHVSEVAKQGVKLGFITGVMNTDKMPQFQRSLWRTTRGNNYVKDARIEEEIIDPQTGEETAKTVFIVFFQGERLQQKIKKICESFGANIYDCPDNSFERSNLLQKVTVRITDLYEVLQRSKDHKRQTLAGIVPRLYSWKKKVLLEKSIYHTMNLFDYDVGRKCLIAKGWTPKDKIEEIQLALRTATTRSGALVPSVLSIIKTEGSPPTHFETNKYTSSFQEIVNAYGIAHYREVNPAVLTIVTFPFLFGVMFGDVGHGALLLLSALGLISLEKKLAGKKLNELIQMPFDGRYVLFLMSLFSIYVGFIYNECFSIPMNIFGSQYNLNSTTGLYTYQHTDRVYPVGVDPLWKGAPNELVYYNSFKMKLSIIFGVVQMSVGICFSLLNYLNQKGPIKIVNILTQFVPQMIFLWSIFGYMSVLIILKWVVPYRSFEVDKVDPPFILPTIIAMFLSPGGTPDVVFFSGQGAVQTALLFLALISIPVMLVIKPLFMKRFHFQEVERKKLGHHEEEHDDEALYTGHHGEEFEMGEVFVHQVIHTIEFVLGAVSNTASYLRLWALSLAHSELSSVFWERILIGQVERGNPFLAFVGFGAWLGASVAVLLLMESLSAFLHALRLHWVEFQNKFYIGDGVRFIPYSATRILSEDDE
Turning to B2, the binding entry is recorded as “binds”.
